According to US9056056B2, “Processing for dispersing amino acids” (N.V. Nutricia, priority 2007, dated 2015):
Some results were stated once for a whole list of compounds, not compound by compound.

Assay: Wettability (wetting time), method of International IDF Standard 87:1979
Assay type: physicochemical
Details: amino acid coated with de-oiled phospholipid composition by the method of the invention
Description: The wettability (wetting time) can be determined using the method of International IDF Standard 87:1979.

Wetting time, below 50 s:
CC(C)C[C@H](N)C(=O)O [Leu, leucine]
CC[C@H](C)[C@H](N)C(=O)O [Ile, isoleucine]
N[C@@H](Cc1ccccc1)C(=O)O [Phe, phenylalanine]
CC(C)[C@H](N)C(=O)O [Val, valine]
